The other results are listed elsewhere or left out. These are further read-outs of the screen, such as a control signal, another cell line or another target. No call is given for them. Compounds called inactive in the main read-out are mostly missing here. The note in brackets gives the kind of curve behind each potency; many fits are weak.

Our source for the AC50 and cell number change values is PubChem BioAssay AID2685 (National Center for Advancing Translational Sciences (NCATS), 2010).

A short description of the assay: qHTS Assay for Lipid Storage Modulators in Drosophila S3 Cells.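 For cell number change: cells counted by Cell Tracker Red CMTPX staining in the red channel.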 Particulars: BODIPY lipid droplet fluorescence, 18-24 h; for cell number change: measured here: cell count max response, cells fed with added oleic acid. The gist of the method: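 Drosophila S3 cells loaded with oleic acid (400 uM, as added) and compounds at several concentrations; lipid droplets imaged by 488-nm laser-scanning cytometry, 500–530 nm intensity and object ratio to cell channel. Percent activity normalized to 20 uM Triacsin C.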

The mark [1] stands for this setting: measured here: cell number channel AC50, cells fed with added oleic acid.
[2] abbreviates: measured here: lipid fluorescence (Fed channel) AC50, cells fed with added oleic acid.

As a reminder, the AC50 is the concentration giving half of the maximal activity seen. A high value points to activity only at high concentration. Regarding `Cc1ccc(N2CCN(C3=NC(=O)/C(=C\c4cccs4)S3)CC2)cc1`, the AC50 is, setting by setting: under setting [1], 0.82 µM [rising, full curve]; under setting [2], 1.84 µM [rising, partial curve].

Turning to `C=CCN1C(=O)C(Cc2ccc(OCC)cc2)S/C1=N\N=C\c1cccs1` (stereo not drawn), the cell number change was determined as 0.925%. For the same compound, the AC50 under setting [2] is 6.51 µM [falling, single point].

With `Cc1cc(C)n(C(=O)CCCn2nc(C)c([N+](=O)[O-])c2C)n1`, the cell number change was -37.7%. Further, under setting [1], the AC50 was 23.1 µM [falling, single point].

With `COc1ccc(Cl)cc1NC(=O)CSc1nc(=O)n(CCN(C)C)c2c1CCCC2`, the AC50 is 0.00517 µM [falling, full curve, poor fit] under setting [1] and 0.00411 µM [falling, full curve, poor fit] under setting [2].

As to `CCOC(=O)c1ccc(NC(=O)CCc2nc(-c3ccccc3Cl)no2)cc1`, the cell number change is 5.75%. In addition, the AC50 under setting [1] is 0.517 µM [falling, full curve, poor fit]. The AC50 under setting [2] was 0.411 µM [falling, full curve, poor fit].

Regarding `COc1ccccc1NC(=O)C(C)OC(=O)C1CCC(C(C)(C)C)CC1` (stereo not drawn), the cell number change is -39.4%. For the same compound, the AC50 under setting [1] is 20.6 µM [falling, single point]. Under setting [2], the AC50 is 23.1 µM [falling, single point].

As to `Brc1cc(/C=N/n2cnnc2)oc1Br`, the cell number change is -67.6%. Besides, the AC50 under setting [1] is 20.6 µM [falling, partial curve].

Regarding `Cc1cccc(NC(=O)CNC(=O)Cc2ccc(S(=O)(=O)N3CCOCC3)s2)c1C`, the cell number change was 1.97%. In addition, under setting [2], the AC50 is 16.4 µM [rising, single point].

As to `COc1cc([N+](=O)[O-])cc(/C=N/NC(=O)CSc2nnc(-c3ccccc3)n2C)c1O`, the AC50 by setting is: under setting [1], 0.82 µM [rising, partial curve]; under setting [2], 4.61 µM [rising, partial curve].

On to `O=C(CSc1n[nH]c(-c2ccncc2)n1)Nc1ccccn1`, for which the cell number change was -4.95%. In addition, the AC50 under setting [2] was 5.17 µM [rising, single point].

For the compound `Cn1c(C(=O)NC2CCCCC2)cc2c(=O)n(C)c3ccccc3c21`, the cell number change came to 36.5%. Also, under setting [1], the AC50 is 0.92 µM [rising, full curve, poor fit]. Also, the AC50 under setting [2] was 1.84 µM [rising, partial curve].

Take `Cc1ccc(NC(=O)C2CCN(S(=O)(=O)c3ccc(Cl)c(C(F)(F)F)c3)CC2)nc1`: the cell number change was -3.31%. Also, the AC50 under setting [2] is 0.58 µM [falling, single point].

`CC1=NOC(=O)/C1=C\c1ccc(-c2ccccc2Br)o1`: the cell number change is -74.5%. In addition, the AC50 under setting [1] was 29.1 µM [falling, single point].

As for `O=C(CN1c2cccc3cccc(c23)S1(=O)=O)NCc1ccc(Cl)cc1`, the cell number change is -58.4%. Further, under setting [1], the AC50 was 29.1 µM [falling, single point]. Further, under setting [2], the AC50 is 18.4 µM [falling, partial curve].

As for `COc1ccc(C2(c3ccc(OC(C)=O)cc3OC(C)=O)CC(c3ccccc3)NC(=S)N2)cc1` (stereo not drawn), the cell number change is -12.3%. Also, under setting [2], the AC50 was 0.58 µM [rising, partial curve, poor fit].

On to `O=C(Nc1ccc2c(c1)nc1n2CCCCC1)c1cc(S(=O)(=O)N2CCOCC2)ccc1Cl`, for which the cell number change is -29.8%. Also, the AC50 under setting [2] was 18.4 µM [falling, single point].

With `CCCCCCCOC(=O)c1nc(Cl)c(Cl)c(N)c1Cl`, the cell number change was -44.6%. The AC50 under setting [2] was 0.00517 µM [falling, full curve, poor fit].

For `O=C(CN1CCN(Cc2ccccc2)CC1)N=Nc1c(O)[nH]c2ccccc12`, the cell number change amounted to 9.56%. For the same compound, the AC50 under setting [2] was 1.16 µM [rising, full curve, poor fit].

With `CCc1nc(NCCCCCO)c2nnn(Cc3ccccc3F)c2n1`, the cell number change turned out to be 19%. In addition, under setting [1], the AC50 is 4.11 µM [rising, partial curve, poor fit].

For `COCCCNc1nc2cc(OC)c(OC)cc2c2nc(-c3ccccc3)nn12`, the cell number change was -35%. Besides, under setting [1], the AC50 is 29.1 µM [falling, single point]. The AC50 under setting [2] was 29.1 µM [falling, single point].

For `Cc1ccc(NC(=S)Nc2cccc3cnccc23)cc1C`, the cell number change is 54.5%.

With `COc1ccc(CNC(=O)C(c2ccco2)N(C(=O)c2snc(C(N)=O)c2N)c2cccc(OC)c2)cc1` (stereo not drawn), the cell number change turned out to be 17.7%. Moreover, the AC50 under setting [2] is 0.184 µM [falling, full curve].

On to `COCc1cc(C)nc(OCC(=O)N/N=C/c2ccc(OC)c(OC)c2)c1C#N`, for which the cell number change is -13.4%. Moreover, under setting [2], the AC50 is 5.8 µM [rising, partial curve].

For `Cc1ccc(NC(=O)CSc2nnc(-c3cc(C)on3)o2)cc1`, the cell number change is -1.9%. Moreover, the AC50 under setting [2] is 29.1 µM [falling, single point].

For the compound `CCNc1nc(NC(C)C)nc(N(C)C#N)n1`, the cell number change is 34.6%. Further, the AC50 under setting [1] was 0.92 µM [rising, full curve, poor fit]. Further, the AC50 under setting [2] is 29.1 µM [rising, single point].

`COc1cccc(N(C(=O)c2snc(C(N)=O)c2N)C(C(=O)NCC2CCCO2)c2ccc3ncccc3c2)c1` (stereo not drawn): the cell number change was determined as 25.6%. The AC50 under setting [2] is 0.13 µM [falling, full curve, poor fit].

For the compound `COc1ccc(C)cc1NC(=O)COCC(=O)O`, the cell number change came out at 8.68%. In addition, the AC50 under setting [1] was 0.231 µM [falling, partial curve, poor fit]. Besides, the AC50 under setting [2] was 0.0184 µM [falling, full curve].

As to `CCOC(=O)CCc1c(C)c2ccc(O)cc2oc1=O`, the cell number change is -102%. Besides, the AC50 under setting [1] is 20.6 µM [falling, partial curve]. The AC50 under setting [2] is 20.6 µM [falling, partial curve].

On to `S=c1[nH]nc(-c2ccc3ncccc3c2)n1-c1ccc2c(c1)OCCO2`, for which the cell number change was -6.84%. Besides, under setting [1], the AC50 was 0.731 µM [rising, partial curve]. For the same compound, the half-maximal activity concentration (AC50) under setting [2] was 0.92 µM [rising, full curve, poor fit].

Turning to `O=C(Nc1nccs1)c1ccc(S(=O)(=O)c2ccccc2)cc1`, the cell number change was -7.96%. Moreover, the AC50 under setting [2] is 32.6 µM [rising, single point].

Turning to `O=C(c1cccnc1)N1CCN(CCCc2ccccc2)CC1`, the cell number change was found to be 17%. Further, the AC50 under setting [2] is 0.146 µM [rising, full curve].

For `COc1cc2c3c(c1OC)C1(C=CC(=O)C=C1)CC3N(C(=O)CCC(=O)O)CC2` (stereo not drawn), the cell number change came out at 11.7%. The AC50 under setting [2] was 0.164 µM [rising, full curve, poor fit].

As for `O=C(NC1CCCC1)C(c1ccc(F)cc1)N(Cc1ccc(F)cc1)C(=O)CCl` (stereo not drawn), the cell number change came to 8.45%. The AC50 under setting [2] was 8.2 µM [rising, partial curve].

For `COc1ccc(Cl)cc1NC(=O)Cn1c(=O)n2nc(C)nc2c2ccccc21`, the AC50 was 0.13 µM [rising, full curve, poor fit] under setting [1] and 0.116 µM [rising, full curve, poor fit] under setting [2].

Regarding `CCOC(=O)c1ccc(NC(=O)c2ccc3c(c2)C(=O)N(CC2CCCO2)C3=O)cc1` (stereo not drawn), the cell number change was -56%. Besides, the AC50 under setting [1] was 18.4 µM [falling, partial curve]. Besides, under setting [2], the AC50 is 5.17 µM [falling, full curve].

`CCCCCCn1c(N(CC)CC)nc2c1c(=O)[nH]c(=O)n2C`: the cell number change was determined as 3.32%. The AC50 under setting [1] was 0.82 µM [rising, full curve]. Besides, the AC50 under setting [2] was 2.06 µM [rising, partial curve].

For `Fc1cccc(NC(=S)NCc2ccc(Cl)cc2)c1`, the cell number change was -11.5%. For the same compound, the AC50 under setting [1] is 7.31 µM [falling, single point]. Besides, the AC50 under setting [2] was 2.06 µM [falling, partial curve].

`Cc1c(NC(=O)C(C#N)=C2CCCCC2)c(=O)n(-c2ccccc2)n1C`: the cell number change was 1.36%.

For the compound `CCN(CC)S(=O)(=O)c1ccc2c(c1)nc(CCC(=O)Nc1cccc(C(F)(F)F)c1)n2CC`, the cell number change stood at 119%.

As to `COc1cccc(-c2nn(-c3ccc(C)cc3)cc2C(=O)N(C)CC(=O)Nc2cccc(F)c2)c1`, under setting [2], the AC50 was 7.31 µM [falling, partial curve].

On to `Cc1[nH]c2ccccc2c1C(C[N+](=O)[O-])c1ccco1` (stereo not drawn), for which the cell number change was -30.4%. Besides, the AC50 under setting [1] is 20.6 µM [falling, single point]. In addition, the half-maximal activity concentration (AC50) under setting [2] was 18.4 µM [falling, single point].

Turning to `O=C(CC1CC2CCC1C2)N1CCN(S(=O)(=O)c2ccccc2F)CC1` (stereo not drawn), the cell number change is 45.5%. In addition, the AC50 under setting [1] was 25.9 µM [rising, partial curve]. Also, the AC50 under setting [2] is 29.1 µM [rising, partial curve, poor fit].

As for `CC(=O)N1CCN(S(=O)(=O)c2cccc(C(=O)Nc3nc4c(s3)CCCC4)c2)CC1`, the AC50 under setting [2] is 0.58 µM [rising, single point].

With `O=[N+]([O-])c1ccc(Oc2ccc(S(=O)(=O)N3CCOCC3)cn2)cc1`, the cell number change turned out to be 11.6%. Further, the AC50 under setting [2] is 0.58 µM [falling, single point].

As for `COc1cc(/C=C2\SC(=S)N(N3CCOCC3)C2=O)cc(OC)c1OC`, the cell number change was -10.9%. Further, the AC50 under setting [2] was 7.31 µM [falling, single point].

Consider `CCOC(=O)CCC(=O)Nc1ccc(S(=O)(=O)Nc2cc(OC)nc(OC)n2)cc1`, for which the cell number change was found to be 22.6%. For the same compound, the AC50 under setting [2] is 0.58 µM [rising, single point].

As to `Cn1c(N=NC(=O)c2ccccc2)c(O)c2ccccc21`, the cell number change was 7.21%. Under setting [2], the AC50 was 3.26 µM [falling, single point].

As for `COc1cccc(-c2noc(-c3cccnc3)n2)c1`, the cell number change was -2.79%.

Consider `CCCN1CCC(NC(=S)Nc2cccc(Cl)c2Cl)CC1`, for which the cell number change amounted to 19.3%.

Regarding `CC(c1ccccc1)n1c(Cn2ncc3ccccc3c2=O)n[nH]c1=S` (stereo not drawn), the cell number change was found to be 18%. The AC50 under setting [2] was 29.1 µM [falling, single point].

As to `Cc1ccc(-c2nc3cccnc3s2)cc1NS(=O)(=O)c1ccc2c(c1)OCCO2`, under setting [2], the AC50 is 0.116 µM [rising, full curve, poor fit].

Take `Cc1cc(C)nc(-n2nc(C)cc2NC(=O)c2ccc(F)cc2F)n1`: the cell number change is -24.6%.

Take `Cc1ccc2nc(SCC(=O)Nc3ccc(C)c(Cl)c3)nc(=O)n2c1`: the AC50 under setting [1] was 1.84 µM [rising, partial curve].

Turning to `COc1ccc(CCNC(=O)C2CCN(S(=O)(=O)c3ccc(NC(C)=O)cc3)CC2)cc1OC`, the cell number change was 47.2%. In addition, the AC50 under setting [1] is 9.2 µM [rising, partial curve]. Also, the AC50 under setting [2] is 2.91 µM [rising, single point].
